Laboratory results as given in PMC10378179.
These are yes or no findings as the source states them, for the method shown. In cells and extracts the contact can be indirect. These calls come from enrichment with a bait or labelling near it, and not all partners need be listed.

By UniProt entry, the sequences of proteins in these tests, tags left out.
UniProt P25106: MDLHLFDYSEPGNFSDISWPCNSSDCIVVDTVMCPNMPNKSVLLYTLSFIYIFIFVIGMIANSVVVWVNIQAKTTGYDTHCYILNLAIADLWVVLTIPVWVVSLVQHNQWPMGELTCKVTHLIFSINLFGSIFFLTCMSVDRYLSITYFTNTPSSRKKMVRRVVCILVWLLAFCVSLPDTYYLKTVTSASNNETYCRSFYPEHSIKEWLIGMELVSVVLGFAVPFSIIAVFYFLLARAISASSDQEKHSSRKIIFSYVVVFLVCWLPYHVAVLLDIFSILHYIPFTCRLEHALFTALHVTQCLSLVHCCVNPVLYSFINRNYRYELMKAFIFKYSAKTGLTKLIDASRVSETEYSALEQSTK
UniProt Q92538: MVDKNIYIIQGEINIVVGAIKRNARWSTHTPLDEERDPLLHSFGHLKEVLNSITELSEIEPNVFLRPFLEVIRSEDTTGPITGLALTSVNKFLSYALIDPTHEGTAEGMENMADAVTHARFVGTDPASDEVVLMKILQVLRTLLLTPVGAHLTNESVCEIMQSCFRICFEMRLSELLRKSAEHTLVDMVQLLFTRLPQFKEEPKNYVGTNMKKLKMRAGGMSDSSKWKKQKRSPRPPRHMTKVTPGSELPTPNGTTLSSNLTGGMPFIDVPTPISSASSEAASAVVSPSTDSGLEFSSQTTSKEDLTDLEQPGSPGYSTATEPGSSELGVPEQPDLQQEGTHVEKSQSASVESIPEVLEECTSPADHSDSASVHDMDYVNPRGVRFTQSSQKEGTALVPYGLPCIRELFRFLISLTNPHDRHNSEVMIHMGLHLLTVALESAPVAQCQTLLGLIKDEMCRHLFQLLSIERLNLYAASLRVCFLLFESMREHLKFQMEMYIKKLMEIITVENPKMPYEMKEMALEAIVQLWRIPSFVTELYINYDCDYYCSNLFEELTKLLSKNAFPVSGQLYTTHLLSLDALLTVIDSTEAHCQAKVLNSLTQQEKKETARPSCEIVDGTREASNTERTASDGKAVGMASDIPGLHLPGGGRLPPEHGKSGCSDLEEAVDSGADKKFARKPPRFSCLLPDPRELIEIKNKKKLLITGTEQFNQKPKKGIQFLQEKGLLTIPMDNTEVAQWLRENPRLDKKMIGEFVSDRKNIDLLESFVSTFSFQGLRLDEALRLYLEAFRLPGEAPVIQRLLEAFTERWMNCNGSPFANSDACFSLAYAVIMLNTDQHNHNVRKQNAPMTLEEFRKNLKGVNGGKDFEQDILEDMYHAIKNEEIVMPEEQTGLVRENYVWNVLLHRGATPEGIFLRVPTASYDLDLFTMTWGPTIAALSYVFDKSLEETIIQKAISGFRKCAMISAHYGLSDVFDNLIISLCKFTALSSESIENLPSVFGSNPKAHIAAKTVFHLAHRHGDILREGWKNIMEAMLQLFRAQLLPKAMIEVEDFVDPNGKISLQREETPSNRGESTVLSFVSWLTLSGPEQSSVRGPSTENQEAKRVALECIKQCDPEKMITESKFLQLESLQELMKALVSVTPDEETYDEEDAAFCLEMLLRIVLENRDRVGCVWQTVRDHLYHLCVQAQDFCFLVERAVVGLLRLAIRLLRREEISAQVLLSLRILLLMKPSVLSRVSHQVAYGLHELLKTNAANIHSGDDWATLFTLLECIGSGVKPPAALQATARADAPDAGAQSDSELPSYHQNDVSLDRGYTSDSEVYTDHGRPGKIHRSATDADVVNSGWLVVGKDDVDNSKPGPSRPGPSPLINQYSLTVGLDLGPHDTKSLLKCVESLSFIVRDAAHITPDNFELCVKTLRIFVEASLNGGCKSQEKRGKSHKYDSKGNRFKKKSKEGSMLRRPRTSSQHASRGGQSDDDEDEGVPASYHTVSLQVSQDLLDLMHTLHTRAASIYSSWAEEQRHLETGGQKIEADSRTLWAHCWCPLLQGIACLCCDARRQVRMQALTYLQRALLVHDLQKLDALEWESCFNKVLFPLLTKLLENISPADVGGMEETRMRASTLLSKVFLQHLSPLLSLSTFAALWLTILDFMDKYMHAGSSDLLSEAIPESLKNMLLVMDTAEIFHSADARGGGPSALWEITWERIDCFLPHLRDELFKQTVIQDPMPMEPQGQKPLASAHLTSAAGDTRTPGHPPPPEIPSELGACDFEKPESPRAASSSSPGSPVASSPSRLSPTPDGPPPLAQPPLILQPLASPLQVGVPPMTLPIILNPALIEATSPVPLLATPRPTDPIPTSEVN
UniProt O75396: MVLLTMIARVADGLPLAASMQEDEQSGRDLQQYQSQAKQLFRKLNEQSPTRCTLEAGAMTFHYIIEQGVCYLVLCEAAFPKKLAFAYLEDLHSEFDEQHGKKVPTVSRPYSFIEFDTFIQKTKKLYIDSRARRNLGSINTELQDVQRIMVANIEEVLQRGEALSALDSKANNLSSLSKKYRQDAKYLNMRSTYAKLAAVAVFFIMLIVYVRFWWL
UniProt Q9BQE3: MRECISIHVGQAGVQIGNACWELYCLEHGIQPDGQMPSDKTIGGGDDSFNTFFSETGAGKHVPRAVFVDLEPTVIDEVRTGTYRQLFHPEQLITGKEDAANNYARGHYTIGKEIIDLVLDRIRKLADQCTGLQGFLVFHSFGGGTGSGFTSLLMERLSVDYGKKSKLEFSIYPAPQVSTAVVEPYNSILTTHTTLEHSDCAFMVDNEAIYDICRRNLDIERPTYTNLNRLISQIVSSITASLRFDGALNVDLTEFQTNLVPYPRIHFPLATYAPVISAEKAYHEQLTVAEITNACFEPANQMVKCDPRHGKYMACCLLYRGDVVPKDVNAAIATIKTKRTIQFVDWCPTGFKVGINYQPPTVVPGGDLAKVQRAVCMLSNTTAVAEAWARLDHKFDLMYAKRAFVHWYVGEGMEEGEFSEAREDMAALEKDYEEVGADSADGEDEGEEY
UniProt Q00610: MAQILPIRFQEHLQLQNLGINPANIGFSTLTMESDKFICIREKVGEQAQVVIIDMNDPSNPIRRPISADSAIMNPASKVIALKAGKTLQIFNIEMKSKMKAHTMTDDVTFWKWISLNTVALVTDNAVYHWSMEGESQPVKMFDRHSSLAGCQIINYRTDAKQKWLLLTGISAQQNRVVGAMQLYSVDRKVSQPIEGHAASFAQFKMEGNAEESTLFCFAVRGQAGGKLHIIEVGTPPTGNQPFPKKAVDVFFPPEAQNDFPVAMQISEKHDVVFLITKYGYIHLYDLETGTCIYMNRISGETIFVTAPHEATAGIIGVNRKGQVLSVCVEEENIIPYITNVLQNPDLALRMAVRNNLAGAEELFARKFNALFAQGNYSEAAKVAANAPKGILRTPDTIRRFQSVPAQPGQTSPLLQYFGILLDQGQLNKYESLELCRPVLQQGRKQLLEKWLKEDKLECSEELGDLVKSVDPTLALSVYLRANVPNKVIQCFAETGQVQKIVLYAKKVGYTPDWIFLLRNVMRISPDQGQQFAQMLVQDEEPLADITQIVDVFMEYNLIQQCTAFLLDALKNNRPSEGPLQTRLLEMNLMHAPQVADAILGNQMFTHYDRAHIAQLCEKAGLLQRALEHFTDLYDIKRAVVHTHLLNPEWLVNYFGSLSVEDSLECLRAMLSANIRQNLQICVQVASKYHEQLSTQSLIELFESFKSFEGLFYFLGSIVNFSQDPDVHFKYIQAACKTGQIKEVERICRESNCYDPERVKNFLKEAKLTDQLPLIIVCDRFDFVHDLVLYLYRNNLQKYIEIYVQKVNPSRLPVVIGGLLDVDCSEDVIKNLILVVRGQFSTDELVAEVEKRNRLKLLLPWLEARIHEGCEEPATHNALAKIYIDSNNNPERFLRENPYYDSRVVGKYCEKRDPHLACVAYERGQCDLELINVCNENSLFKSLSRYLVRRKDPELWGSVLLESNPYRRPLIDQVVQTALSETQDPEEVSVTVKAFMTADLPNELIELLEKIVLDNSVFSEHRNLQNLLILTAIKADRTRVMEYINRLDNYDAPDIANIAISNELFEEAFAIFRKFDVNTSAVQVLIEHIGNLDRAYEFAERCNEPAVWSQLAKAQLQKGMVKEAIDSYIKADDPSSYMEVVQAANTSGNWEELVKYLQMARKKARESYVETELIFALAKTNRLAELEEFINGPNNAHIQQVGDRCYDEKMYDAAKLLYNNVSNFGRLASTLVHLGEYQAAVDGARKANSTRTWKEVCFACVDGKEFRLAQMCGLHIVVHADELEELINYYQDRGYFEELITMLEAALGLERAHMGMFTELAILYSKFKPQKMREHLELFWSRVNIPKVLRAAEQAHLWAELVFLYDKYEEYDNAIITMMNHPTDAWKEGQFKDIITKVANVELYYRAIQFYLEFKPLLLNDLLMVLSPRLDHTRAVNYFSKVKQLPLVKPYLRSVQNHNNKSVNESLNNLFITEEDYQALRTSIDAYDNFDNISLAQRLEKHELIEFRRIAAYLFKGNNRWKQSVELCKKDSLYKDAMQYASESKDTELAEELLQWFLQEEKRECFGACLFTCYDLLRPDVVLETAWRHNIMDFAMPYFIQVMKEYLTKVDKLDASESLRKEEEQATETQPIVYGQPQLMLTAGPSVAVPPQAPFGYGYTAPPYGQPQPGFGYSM
UniProt Q9H4A6: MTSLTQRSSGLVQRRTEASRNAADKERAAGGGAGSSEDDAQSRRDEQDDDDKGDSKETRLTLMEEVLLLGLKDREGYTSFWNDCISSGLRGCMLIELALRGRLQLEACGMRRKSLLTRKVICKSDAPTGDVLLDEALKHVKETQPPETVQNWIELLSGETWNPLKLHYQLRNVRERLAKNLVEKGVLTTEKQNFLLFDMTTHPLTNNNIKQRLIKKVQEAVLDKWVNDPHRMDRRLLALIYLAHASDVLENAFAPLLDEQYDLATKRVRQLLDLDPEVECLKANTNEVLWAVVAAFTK
UniProt P68371: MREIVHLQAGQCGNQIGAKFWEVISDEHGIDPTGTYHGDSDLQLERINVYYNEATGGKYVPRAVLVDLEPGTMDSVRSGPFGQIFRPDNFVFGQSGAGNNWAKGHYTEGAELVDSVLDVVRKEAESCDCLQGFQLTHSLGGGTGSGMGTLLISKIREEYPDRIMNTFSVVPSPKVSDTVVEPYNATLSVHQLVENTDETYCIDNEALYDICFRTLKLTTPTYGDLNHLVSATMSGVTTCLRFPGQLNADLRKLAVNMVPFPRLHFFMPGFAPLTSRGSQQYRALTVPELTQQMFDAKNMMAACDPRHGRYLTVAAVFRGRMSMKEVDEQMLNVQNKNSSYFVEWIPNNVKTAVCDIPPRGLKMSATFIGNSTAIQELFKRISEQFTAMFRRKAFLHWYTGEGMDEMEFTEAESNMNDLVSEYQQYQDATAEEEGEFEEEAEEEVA

target: CXCR7-FLAG (UniProt P25106); experiment: affinity purification with mass spectrometry; LNCaP EnzR cells stably expressing GFP or CXCR7-FLAG lysed in NETN buffer (100 mM NaCl, 20 mM Tris-Cl pH 8.0, 1 mM EDTA, 0.5% NP-40); anti-FLAG M2 agarose overnight at 4°C; glycine elution; mass spectrometry

Row | Molecule | binding
1 | GBF1 (from UniProt Q92538 1-1860) | binds
2 | SEC22B (from UniProt O75396 1-215) | binds
3 | TUBA1C (from UniProt Q9BQE3 1-449) | binds
4 | clathrin heavy chain (CLTC) (from UniProt Q00610 1-1675) | binds
5 | GPR89B (protein, UniProt P0CG08 1-455) MSFLIDSSIMITSQILFFGFGWLFFMRQLFKDYEIRQYVVQVIFSVTFAFSCTMFELIIFEILGVLNSSSRYFHWKMNLCVILLILVFMVPFYIGYFIVSNIRLLHKQRLLFSCLLWLTFMYFFWKLGDPFPILSPKHGILSIEQLISRVGVIGVTLMALLSGFGAVNCPYTYMSYFLRNVTDTDILALERRLLQTMDMIISKKKRMAMARRTMFQKGEVHNKPSGFWGMIKSVTTSASGSENLTLIQQEVDALEELSRQLFLETADLYATKERIEYSKTFKGKYFNFLGYFFSIYCVWKIFMATINIVFDRVGKTDPVTRGIEITVNYLGIQFDVKFWSQHISFILVGIIIVTSIRGLLITLTKFFYAISSSKSSNVIVLLLAQIMGMYFVSSVLLIRMSMPLEYRTIITEVLGELQFNFYHRWFDVIFLVSALSSILFLYLAHKQAPEKQMAP | binds

Other lines, results leading:

Row | binding | Molecule
6 | binds | GOLPH3 (from UniProt Q9H4A6 1-298)
7 | binds | TUBB4B (from UniProt P68371 1-445)
